From patent US20250352579A1 (HEBEI SENLANG BIOTECHNOLOGY, published 2025)

Biological target: T1, CD7 on cells (K562-CD7 positive cells; KG-1a-GFP-Luc; CCRF-CEM) (UniProt P09564 26-240, limits assumed)
T1 sequence (looked up): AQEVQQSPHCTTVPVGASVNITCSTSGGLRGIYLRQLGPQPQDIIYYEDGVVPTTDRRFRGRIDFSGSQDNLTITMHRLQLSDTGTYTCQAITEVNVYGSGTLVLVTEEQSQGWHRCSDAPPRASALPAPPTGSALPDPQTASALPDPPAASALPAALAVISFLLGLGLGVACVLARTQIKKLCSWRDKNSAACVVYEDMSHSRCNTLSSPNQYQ
Experiment: cell-based or functional assay

B1: VHH13 single VHH CAR (other)
chain: QVQLQESGGGLVQAGGSLNLSCTVYGFTADDYAVGWFRQAPGKGRQGISCLSRKDGSKYVADPVLGRATISSDNTKNTVRLTLSALKPDDTAVYYCAAHRFATFCGTRDYEYDYWGQGTQVTVSSTTPAPRPPTPAPTIASQPLSLRPEACRPAAGGAVHTRGLDFACDIYIWAPLAGTCGVLLLSLVITLYCKRGRKKLLYIFKQPFMRPVQTTQEEDGCSCRFPEEEEGGCELRVKFSRSADAPAYKQGQNQLYNELNLGRREEYDVLDKRRGRDPEMGGKPRRKNPQEGLYNELQKDKMAEAYSEIGMKGERRRGKGHDGLYQGLSTATKDTYDALHMQALPPR
killing ratio, CAR-T cells on KG-1a-GFP-Luc, E:T=3:1, 4 h, luciferase: 1.18%
